Source: the supplement of paper PMC10849652
The other results are listed elsewhere or left out.

The chains behind the UniProt entries cited, without tags or fusion partners. Where a name states a change or a piece, a line headed by the entry shows the natural chain unless it says otherwise.
UniProt P40855: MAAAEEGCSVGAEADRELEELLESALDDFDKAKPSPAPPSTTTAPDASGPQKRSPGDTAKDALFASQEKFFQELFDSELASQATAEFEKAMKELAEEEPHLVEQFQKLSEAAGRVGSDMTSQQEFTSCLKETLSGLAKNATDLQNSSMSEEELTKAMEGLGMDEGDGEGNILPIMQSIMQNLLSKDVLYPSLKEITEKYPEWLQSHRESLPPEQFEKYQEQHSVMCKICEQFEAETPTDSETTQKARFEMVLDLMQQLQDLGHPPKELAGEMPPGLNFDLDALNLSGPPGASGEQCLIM
UniProt P0C869: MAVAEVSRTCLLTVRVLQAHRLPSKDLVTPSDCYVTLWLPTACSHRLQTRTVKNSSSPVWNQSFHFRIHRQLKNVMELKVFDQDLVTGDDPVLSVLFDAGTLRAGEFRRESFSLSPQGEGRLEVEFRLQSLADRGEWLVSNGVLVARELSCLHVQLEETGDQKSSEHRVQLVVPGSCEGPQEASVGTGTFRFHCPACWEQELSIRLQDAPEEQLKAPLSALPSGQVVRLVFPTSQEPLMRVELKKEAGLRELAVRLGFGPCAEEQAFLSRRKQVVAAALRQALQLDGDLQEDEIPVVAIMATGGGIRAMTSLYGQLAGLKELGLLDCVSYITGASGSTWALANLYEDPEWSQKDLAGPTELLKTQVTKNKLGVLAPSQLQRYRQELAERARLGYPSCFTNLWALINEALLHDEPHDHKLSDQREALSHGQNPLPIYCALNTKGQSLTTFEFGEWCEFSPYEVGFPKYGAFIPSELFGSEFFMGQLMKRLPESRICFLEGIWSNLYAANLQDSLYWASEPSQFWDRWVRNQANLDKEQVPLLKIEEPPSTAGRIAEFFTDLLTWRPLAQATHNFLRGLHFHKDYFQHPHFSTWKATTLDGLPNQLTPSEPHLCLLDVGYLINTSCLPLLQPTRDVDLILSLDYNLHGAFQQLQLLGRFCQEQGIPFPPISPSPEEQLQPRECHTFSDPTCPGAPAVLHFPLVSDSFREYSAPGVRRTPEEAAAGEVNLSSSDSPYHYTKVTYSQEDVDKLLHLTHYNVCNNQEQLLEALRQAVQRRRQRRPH
UniProt O60925, whole entry, looked up: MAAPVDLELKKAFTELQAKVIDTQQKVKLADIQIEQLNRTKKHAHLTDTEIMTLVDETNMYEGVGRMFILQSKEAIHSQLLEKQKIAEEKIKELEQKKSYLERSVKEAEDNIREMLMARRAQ
UniProt O15173: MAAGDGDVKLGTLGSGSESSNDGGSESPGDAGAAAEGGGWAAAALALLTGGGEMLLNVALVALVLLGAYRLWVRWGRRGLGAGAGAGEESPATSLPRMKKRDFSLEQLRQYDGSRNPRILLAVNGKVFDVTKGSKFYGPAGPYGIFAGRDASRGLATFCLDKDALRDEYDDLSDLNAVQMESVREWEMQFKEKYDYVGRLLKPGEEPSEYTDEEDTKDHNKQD
UniProt Q9NQP4, whole entry, looked up: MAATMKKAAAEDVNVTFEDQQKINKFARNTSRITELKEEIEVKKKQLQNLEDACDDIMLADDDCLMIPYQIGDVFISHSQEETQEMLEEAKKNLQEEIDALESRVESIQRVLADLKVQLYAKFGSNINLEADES
UniProt Q8IWS0: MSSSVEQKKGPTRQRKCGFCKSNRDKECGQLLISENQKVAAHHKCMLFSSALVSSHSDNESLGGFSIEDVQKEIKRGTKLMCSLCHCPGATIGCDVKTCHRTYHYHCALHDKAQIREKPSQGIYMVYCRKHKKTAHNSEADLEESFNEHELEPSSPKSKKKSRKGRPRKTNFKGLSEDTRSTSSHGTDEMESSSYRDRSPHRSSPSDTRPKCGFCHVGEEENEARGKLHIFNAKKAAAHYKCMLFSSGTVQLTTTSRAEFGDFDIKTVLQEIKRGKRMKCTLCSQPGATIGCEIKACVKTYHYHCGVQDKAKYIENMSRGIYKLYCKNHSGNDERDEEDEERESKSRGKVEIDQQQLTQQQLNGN
UniProt P53609, whole entry, looked up: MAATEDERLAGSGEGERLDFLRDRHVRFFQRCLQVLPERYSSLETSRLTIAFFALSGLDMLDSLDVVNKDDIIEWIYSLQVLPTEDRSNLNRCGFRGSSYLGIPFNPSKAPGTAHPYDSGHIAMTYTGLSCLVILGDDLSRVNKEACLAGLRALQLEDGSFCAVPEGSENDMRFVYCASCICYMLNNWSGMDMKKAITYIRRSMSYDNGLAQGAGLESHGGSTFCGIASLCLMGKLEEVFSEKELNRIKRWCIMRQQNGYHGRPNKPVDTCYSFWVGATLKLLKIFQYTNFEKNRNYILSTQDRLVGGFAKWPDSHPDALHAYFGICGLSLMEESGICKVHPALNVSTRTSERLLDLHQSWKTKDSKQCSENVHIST
UniProt Q13492: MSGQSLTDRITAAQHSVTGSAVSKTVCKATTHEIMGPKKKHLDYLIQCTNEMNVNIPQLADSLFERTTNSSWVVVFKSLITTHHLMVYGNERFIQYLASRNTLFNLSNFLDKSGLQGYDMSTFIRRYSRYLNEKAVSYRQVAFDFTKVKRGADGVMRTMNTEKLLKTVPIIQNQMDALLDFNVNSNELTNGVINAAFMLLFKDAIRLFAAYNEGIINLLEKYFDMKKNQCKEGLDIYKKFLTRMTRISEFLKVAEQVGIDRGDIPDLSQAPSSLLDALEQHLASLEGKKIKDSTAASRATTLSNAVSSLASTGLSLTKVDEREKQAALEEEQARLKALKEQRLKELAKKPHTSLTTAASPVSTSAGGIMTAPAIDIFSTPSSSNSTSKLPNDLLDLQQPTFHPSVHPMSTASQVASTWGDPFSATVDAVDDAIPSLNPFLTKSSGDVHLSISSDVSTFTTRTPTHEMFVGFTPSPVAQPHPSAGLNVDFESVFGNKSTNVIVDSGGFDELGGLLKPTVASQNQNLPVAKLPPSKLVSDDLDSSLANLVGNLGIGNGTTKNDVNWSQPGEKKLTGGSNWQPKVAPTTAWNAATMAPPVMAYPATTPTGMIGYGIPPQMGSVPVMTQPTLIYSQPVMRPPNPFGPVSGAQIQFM
UniProt O00459, whole entry, looked up: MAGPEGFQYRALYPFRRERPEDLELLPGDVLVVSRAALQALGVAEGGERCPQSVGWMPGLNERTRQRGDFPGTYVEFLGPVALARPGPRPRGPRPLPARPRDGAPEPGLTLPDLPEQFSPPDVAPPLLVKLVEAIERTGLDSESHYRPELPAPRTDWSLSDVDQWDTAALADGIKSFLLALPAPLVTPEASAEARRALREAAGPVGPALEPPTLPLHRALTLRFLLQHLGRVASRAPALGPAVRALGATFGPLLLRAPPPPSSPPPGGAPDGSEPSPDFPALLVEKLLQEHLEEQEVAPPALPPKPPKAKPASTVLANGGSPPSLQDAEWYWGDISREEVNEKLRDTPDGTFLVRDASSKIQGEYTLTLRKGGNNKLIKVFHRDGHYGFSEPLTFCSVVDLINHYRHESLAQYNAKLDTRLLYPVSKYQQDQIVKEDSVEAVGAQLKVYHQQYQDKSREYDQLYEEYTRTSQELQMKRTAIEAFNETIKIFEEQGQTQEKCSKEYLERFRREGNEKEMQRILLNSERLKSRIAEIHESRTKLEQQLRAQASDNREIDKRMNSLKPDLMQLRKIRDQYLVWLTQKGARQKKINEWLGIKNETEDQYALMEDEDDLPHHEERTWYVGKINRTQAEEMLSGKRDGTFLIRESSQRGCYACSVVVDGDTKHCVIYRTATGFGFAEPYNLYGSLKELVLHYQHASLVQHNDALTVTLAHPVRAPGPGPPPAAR
UniProt Q8NDX5: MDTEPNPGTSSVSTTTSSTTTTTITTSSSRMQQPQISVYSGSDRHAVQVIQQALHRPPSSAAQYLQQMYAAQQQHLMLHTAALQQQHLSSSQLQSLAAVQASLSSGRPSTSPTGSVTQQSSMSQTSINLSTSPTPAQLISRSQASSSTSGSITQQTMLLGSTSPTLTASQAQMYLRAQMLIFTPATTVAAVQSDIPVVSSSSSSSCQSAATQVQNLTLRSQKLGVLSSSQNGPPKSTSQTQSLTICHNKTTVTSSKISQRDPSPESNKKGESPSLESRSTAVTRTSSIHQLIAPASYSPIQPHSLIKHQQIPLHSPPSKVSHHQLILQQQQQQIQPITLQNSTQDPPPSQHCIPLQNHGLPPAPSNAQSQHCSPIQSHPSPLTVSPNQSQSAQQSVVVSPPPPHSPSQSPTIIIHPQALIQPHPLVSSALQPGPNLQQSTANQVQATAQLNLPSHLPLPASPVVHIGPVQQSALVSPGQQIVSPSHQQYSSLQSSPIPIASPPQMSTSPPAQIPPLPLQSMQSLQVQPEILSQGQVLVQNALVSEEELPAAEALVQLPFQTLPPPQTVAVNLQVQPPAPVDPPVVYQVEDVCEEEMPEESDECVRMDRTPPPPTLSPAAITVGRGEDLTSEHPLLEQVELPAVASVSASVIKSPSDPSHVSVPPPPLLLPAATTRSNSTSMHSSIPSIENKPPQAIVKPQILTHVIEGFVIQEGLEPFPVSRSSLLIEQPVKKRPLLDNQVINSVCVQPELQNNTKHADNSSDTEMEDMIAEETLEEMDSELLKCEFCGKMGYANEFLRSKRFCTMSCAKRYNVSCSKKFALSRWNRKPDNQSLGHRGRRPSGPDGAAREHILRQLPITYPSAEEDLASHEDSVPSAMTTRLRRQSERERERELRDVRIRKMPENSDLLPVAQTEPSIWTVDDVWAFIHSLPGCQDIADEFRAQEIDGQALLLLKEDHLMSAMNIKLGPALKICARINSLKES
UniProt P17858: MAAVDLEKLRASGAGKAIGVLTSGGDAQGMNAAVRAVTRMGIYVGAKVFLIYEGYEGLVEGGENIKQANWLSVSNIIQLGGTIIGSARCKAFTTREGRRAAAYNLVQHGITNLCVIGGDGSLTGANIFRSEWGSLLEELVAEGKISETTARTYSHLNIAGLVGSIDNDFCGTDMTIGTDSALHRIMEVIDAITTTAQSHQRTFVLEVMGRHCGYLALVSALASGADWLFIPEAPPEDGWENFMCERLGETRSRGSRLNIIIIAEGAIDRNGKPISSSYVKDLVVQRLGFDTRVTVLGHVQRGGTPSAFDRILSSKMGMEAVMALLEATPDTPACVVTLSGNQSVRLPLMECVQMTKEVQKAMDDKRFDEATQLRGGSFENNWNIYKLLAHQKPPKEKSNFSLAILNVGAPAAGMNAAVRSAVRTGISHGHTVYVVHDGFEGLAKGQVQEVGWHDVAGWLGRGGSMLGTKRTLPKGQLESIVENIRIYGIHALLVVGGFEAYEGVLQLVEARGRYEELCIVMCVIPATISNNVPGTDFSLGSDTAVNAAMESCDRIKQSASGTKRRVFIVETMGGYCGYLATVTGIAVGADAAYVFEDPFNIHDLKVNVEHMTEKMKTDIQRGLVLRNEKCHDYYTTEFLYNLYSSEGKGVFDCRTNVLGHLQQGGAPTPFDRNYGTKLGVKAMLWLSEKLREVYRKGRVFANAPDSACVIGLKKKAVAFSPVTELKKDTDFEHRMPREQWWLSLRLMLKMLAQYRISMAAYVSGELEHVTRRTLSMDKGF
UniProt Q9HAU0: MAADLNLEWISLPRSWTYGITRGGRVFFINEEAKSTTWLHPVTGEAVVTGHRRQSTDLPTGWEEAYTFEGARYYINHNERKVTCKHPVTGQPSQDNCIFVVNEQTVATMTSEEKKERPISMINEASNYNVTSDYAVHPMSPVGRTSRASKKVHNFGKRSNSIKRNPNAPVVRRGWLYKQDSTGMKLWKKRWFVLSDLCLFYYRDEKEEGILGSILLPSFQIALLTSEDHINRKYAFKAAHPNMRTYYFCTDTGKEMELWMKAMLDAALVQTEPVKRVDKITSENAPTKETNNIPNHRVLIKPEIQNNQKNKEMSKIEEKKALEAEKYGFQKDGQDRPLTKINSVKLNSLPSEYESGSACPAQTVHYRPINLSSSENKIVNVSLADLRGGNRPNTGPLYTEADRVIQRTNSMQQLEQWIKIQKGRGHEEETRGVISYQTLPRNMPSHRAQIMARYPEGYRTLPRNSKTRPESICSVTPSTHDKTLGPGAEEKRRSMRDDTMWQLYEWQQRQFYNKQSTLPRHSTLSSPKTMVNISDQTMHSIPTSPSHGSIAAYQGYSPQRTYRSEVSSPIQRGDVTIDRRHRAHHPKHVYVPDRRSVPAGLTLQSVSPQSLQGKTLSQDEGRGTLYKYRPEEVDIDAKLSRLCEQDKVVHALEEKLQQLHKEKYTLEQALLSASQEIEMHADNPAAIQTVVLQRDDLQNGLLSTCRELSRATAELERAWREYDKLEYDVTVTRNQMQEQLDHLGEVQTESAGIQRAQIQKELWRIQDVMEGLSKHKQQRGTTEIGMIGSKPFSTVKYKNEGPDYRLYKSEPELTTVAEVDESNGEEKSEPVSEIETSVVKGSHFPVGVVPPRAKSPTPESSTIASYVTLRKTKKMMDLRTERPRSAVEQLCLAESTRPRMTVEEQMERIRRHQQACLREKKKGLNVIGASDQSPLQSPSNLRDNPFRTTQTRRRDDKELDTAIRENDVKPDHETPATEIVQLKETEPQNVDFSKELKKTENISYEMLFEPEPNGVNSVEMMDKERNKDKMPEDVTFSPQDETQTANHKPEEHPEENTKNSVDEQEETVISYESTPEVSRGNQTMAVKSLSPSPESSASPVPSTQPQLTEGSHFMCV

Assays:
Assay in all cases: log2 fold change, soluble protein after heating vs DMSO (PISA); higher = thermal stabilisation; K562 cells, 10 uM, 30 min; active = over 0.2 and 3.5 SD of the protein, either way, in both replicates (recomputed)
[1] = compound: C1=CC=C(C=C1)[C@H](COC2=CC3=C(C=C2)NC(=O)N3)NC(=O)C4=CC=CN(C4=O)CC5=CC(=C(C=C5)F)F
Procedure, shortened: (§1)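 K562 cells at 2×10^6 cells/mL were exposed to 10 μM compound for 30 min, then aliquots were heated for 3 min across 48°C-58°C, pooled, and extracted in PBS containing 0.5% NP-40 at 4°C. The supernatant after 21,000xg for 90 min was taken as soluble protein and measured by TMTpro 16plex LC-MS/MS with channel sums equalised. Thermal stability is reported relative to control samples, with values from duplicates. Fold changes are given on a log2 scale.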

[2] = compound: CC1=C(SC2=C1C(=N[C@H](C3=NN=C(N32)C)CC(=O)N)C4=CC=C(C=C4)Cl)C
Procedure, shortened: as §1

[3] = compound: CC1=C2C(=CC=C1)N=C(N(C2=O)C3=CC=CC=C3C)CN4C=NC5=C(N=CN=C54)N
Procedure, shortened: as §1

[4] = compound: Cc1sc2c(c1C)C(c1ccc(Cl)cc1)=N[C@@H](CC(=O)OC(C)(C)C)c1nnc(C)n1-2
Procedure, shortened: as §1

[5] = compound: c1ccc([C@@H]2C[C@H]2NC2CCNCC2)cc1
Procedure, shortened: as §1

Measured: log2 fold change

PITPNA (UniProt Q00169)
inactive: [1] 0.003 | [2] 0.045 | [3] -0.004 | [4] -0.038 | [5] 0.006

PIP5K1A (UniProt Q99755)
inactive: [1] 0.033 | [2] -0.155 | [3] -0.116 | [4] 0.258 | [5] -0.087

PEX19 (UniProt P40855)
inactive: [1] 0.035 | [2] -0.03 | [3] -0.008 | [4] -0.016 | [5] 0.034

PKN1 isoform 2 (UniProt Q16512)
inactive: [1] -0.077 | [2] 0.079 | [3] 0.069 | [4] 0.015 | [5] 0

PFKP (UniProt Q01813)
inactive: [1] 0.023 | [2] 0.064 | [3] 0.087 | [4] -0.042 | [5] -0.002

PLA2G4B isoform 6 (UniProt P0C869)
inactive: [1] -0.097 | [2] 0.233 | [3] -0.03 | [4] -0.054 | [5] -0.099

PFDN1 (UniProt O60925)
inactive: [1] -0.102 | [2] 0.155 | [3] 0.061 | [4] -0.171 | [5] -0.061

PGRMC2 isoform 2 (UniProt O15173)
inactive: [1] 0.044 | [2] 0.047 | [3] 0.005 | [4] -0.006 | [5] -0.01

PLA2G15 (UniProt Q8NCC3)
inactive: [1] 0.02 | [2] -0.01 | [3] -0.034 | [4] -0.001 | [5] 0

PHAX (UniProt Q9H814)
inactive: [1] 0.014 | [2] -0.019 | [3] -0.015 | [4] -0.024 | [5] 0.022

PIK3R1 (UniProt P27986)
inactive: [1] -0.059 | [2] 0.019 | [3] 0.138 | [4] 0.005 | [5] -0.027

PIGO (UniProt Q8TEQ8)
inactive: [1] -0.064 | [2] -0.016 | [3] 0.049 | [4] -0.12 | [5] -0.072

PIGBOS1, A0A0B4J2F0
inactive: [1] -0.14 | [2] 0.143 | [3] -0.041 | [4] -0.002 | [5] -0.017

PLCB3 (UniProt Q01970)
inactive: [1] -0.019 | [2] -0.015 | [3] 0 | [4] -0.048 | [5] -0.062

PHACTR4 isoform 2 (UniProt Q8IZ21)
inactive: [1] 0.022 | [2] 0.074 | [3] 0.082 | [4] -0.022 | [5] 0.057

PIK3CD (UniProt O00329)
active: [3] 0.424
inactive: [1] -0.166 | [2] -0.126 | [4] -0.086 | [5] 0.018

PLBD1 (UniProt Q6P4A8)
inactive: [1] 0.005 | [2] -0.011 | [3] -0.018 | [4] -0.006 | [5] 0.013

PIGG (UniProt Q5H8A4)
inactive: [1] 0.12 | [2] 0.031 | [3] -0.091 | [4] 0.006 | [5] -0.003

PIGL (UniProt Q9Y2B2)
inactive: [1] 0 | [2] -0.005 | [3] 0.019 | [4] -0.006 | [5] 0.089

PFDN4 (UniProt Q9NQP4)
inactive: [1] -0.09 | [2] -0.053 | [3] -0.006 | [4] -0.05 | [5] -0.029

PIGU (UniProt Q9H490)
inactive: [1] -0.087 | [2] -0.019 | [3] -0.026 | [4] -0.043 | [5] -0.024

PGAM1 (UniProt P18669)
inactive: [1] -0.002 | [2] 0.004 | [3] -0.015 | [4] -0.007 | [5] 0.006

PIGA (UniProt P37287)
inactive: [1] -0.004 | [2] -0.006 | [3] 0.018 | [4] -0.012 | [5] -0.023

PHF6 (UniProt Q8IWS0)
inactive: [1] 0.094 | [2] -0.173 | [3] -0.094 | [4] 0.058 | [5] 0.05

PEX2 (UniProt P28328)
inactive: [1] 0.023 | [2] -0.006 | [3] -0.067 | [4] 0.058 | [5] -0.008

PHB (UniProt P35232)
inactive: [1] 0.013 | [2] 0.055 | [3] 0.03 | [4] -0.038 | [5] -0.02

PIP4K2C (UniProt Q8TBX8)
inactive: [1] -0.148 | [2] 0.034 | [3] 0.05 | [4] -0.029 | [5] -0.042

PIH1D1 (UniProt Q9NWS0)
inactive: [1] 0 | [2] -0.003 | [3] 0.012 | [4] -0.019 | [5] 0.027

PGS1 (UniProt Q32NB8)
inactive: [1] -0.254 | [2] 0.111 | [3] 0.075 | [4] -0.038 | [5] -0.048

PLEC (UniProt Q15149)
inactive: [1] 0.073 | [2] -0.066 | [3] 0.024 | [4] 0.101 | [5] 0

PGGT1B (UniProt P53609)
inactive: [1] 0.025 | [2] 0.066 | [3] 0.051 | [4] -0.018 | [5] -0.004

Taken from the entries so far (11 entries):
PIGG (UniProt Q5H8A4)
inactive: [1] 0.12 | [2] 0.031 | [3] -0.091 | [4] 0.006 | [5] -0.003

PIGL (UniProt Q9Y2B2)
inactive: [1] 0 | [2] -0.005 | [3] 0.019 | [4] -0.006 | [5] 0.089

PFDN4 (UniProt Q9NQP4)
inactive: [1] -0.09 | [2] -0.053 | [3] -0.006 | [4] -0.05 | [5] -0.029

PIGU (UniProt Q9H490)
inactive: [1] -0.087 | [2] -0.019 | [3] -0.026 | [4] -0.043 | [5] -0.024

PGAM1 (UniProt P18669)
inactive: [1] -0.002 | [2] 0.004 | [3] -0.015 | [4] -0.007 | [5] 0.006

PIGA (UniProt P37287)
inactive: [1] -0.004 | [2] -0.006 | [3] 0.018 | [4] -0.012 | [5] -0.023

PHF6 (UniProt Q8IWS0)
inactive: [1] 0.094 | [2] -0.173 | [3] -0.094 | [4] 0.058 | [5] 0.05

PEX2 (UniProt P28328)
inactive: [1] 0.023 | [2] -0.006 | [3] -0.067 | [4] 0.058 | [5] -0.008

PHB (UniProt P35232)
inactive: [1] 0.013 | [2] 0.055 | [3] 0.03 | [4] -0.038 | [5] -0.02

PIP4K2C (UniProt Q8TBX8)
inactive: [1] -0.148 | [2] 0.034 | [3] 0.05 | [4] -0.029 | [5] -0.042

PIH1D1 (UniProt Q9NWS0)
inactive: [1] 0 | [2] -0.003 | [3] 0.012 | [4] -0.019 | [5] 0.027

More entries.

PGGHG (UniProt Q32M88)
inactive: [1] -0.052 | [2] -0.09 | [3] -0.088 | [4] -0.084 | [5] 0.213

PGD (UniProt P52209)
inactive: [1] -0.028 | [2] 0.04 | [3] -0.006 | [4] -0.014 | [5] -0.029

PKP3 isoform 2 (UniProt Q9Y446)
inactive: [1] 0.012 | [2] -0.136 | [3] 0.046 | [4] 0.052 | [5] -0.112

PKLR (UniProt P30613)
inactive: [1] 0.012 | [2] 0.028 | [3] -0.018 | [4] -0.01 | [5] 0.006

PGP (UniProt A6NDG6)
inactive: [1] -0.027 | [2] 0.021 | [3] 0.007 | [4] 0.001 | [5] -0.013

PLD1 (UniProt Q13393)
inactive: [1] 0.097 | [2] -0.039 | [3] 0.005 | [4] 0.062 | [5] -0.102

PEX16 isoform 2 (UniProt Q9Y5Y5)
inactive: [1] -0.01 | [2] 0.095 | [3] 0.087 | [4] -0.031 | [5] -0.048

PICALM (UniProt Q13492)
inactive: [1] -0.001 | [2] 0.072 | [3] 0.033 | [4] -0.016 | [5] 0

PIK3R2 (UniProt O00459)
inactive: [1] -0.133 | [2] -0.023 | [3] 0.068 | [4] -0.094 | [5] 0.028

PGRMC1 (UniProt O00264)
inactive: [1] 0.021 | [2] -0.063 | [3] -0.018 | [4] -0.027 | [5] 0.027

PIAS4 (UniProt Q8N2W9)
inactive: [4] 0.129

PHC3 isoform 7 (UniProt Q8NDX5)
inactive: [1] -0.023 | [2] -0.025 | [5] -0.075

PKM isoform 2 (UniProt P14618)
inactive: [1] 0.063 | [3] -0.057 | [4] -0.046

PEX5 isoform 4 (UniProt P50542)
inactive: [2] -0.147 | [3] 0.043 | [4] 0.059 | [5] 0.006

PFKL isoform 2 (UniProt P17858)
inactive: [1] 0.014 | [2] 0.026 | [3] 0.056 | [4] -0.017 | [5] 0.016

PLEKHA5 isoform 6 (UniProt Q9HAU0)
inactive: [2] 0.325 | [3] 0.092 | [4] 0.229 | [5] -0.002

PKLR (UniProt F8W6W2)
inactive: [1] -0.011 | [3] -0.191

PLEK (UniProt P08567)
inactive: [3] -0.118
